In PubChem BioAssay AID504467 (National Center for Advancing Translational Sciences (NCATS), 2011):
Screen size: about 330,000 compounds; about 7,700 (2.3%) were called active. Inconclusive results, whose numbers are uncertain, are shown with a selection of clear calls. Calls follow the shape of the dose curve; as a rule, active = well fitted inhibition curve with a large enough effect; inconclusive = small, poorly fitted or top-dose-only effect, or effect the other way; inactive = flat fitted curve, though single readings scatter. Potencies of inconclusive entries are doubtful fits and often do not repeat.

Test: qHTS screen for small molecules that inhibit ELG1-dependent DNA repair in human embryonic kidney (HEK293T) cells expressing luciferase-tagged ELG1; also: nearly all actives have a fitted effect of over 55% in size
Settings: HEK293T ELG1-luciferase reporter, luminescence, 16 h, DNA damage induced by 5-fluorouridine; series mostly up to 46.1 µM
Procedure, shortened: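 Overnight (16 hr) co-exposure of 2,000 cells/well to 5-fluorouridine and compound at 37 °C preceded detection. Luciferase was quantified via ONE-Glo luminescence; loss of signal denotes inhibition.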
Potency is read from the fitted curve at half-maximal effect.

| Structure (SMILES) | Potency |
| --- | --- |
| OCc1cn(-c2ccc(Cl)cc2)nn1 | inactive |
| Cc1cccc(N2CCN(C(=O)c3ccncc3)CC2C)c1 (stereo not drawn) | inconclusive: 25.9 µM [inhibitor, single point] |
| O=[N+]([O-])c1cccc(C=Nc2cccc3ccccc23)c1O | inactive |
| CC(C)Cn1c(N)c(C(=O)COC(=O)CC23CC4CC(CC(C4)C2)C3)c(=O)n(C)c1=O | active: 3.66 µM |
| Cc1cccc(C)c1OCCNC(=O)C(=O)NCc1ccco1 | inactive |
| N#CC(Sc1ccccn1)c1ccc(Cl)cc1 (stereo not drawn) | inconclusive: 32.6 µM [activator, single point] |
| COC(=O)Cc1[nH]nc2c1C1(C(=O)N(Cc3ccccc3)c3ccccc31)C(C#N)=C(N)O2 (stereo not drawn) | inactive |
| CCCN1C(=O)c2cccc3c(N4CCCCC4)ccc(c23)C1=O | inconclusive: 4.61 µM [activator, partial curve] |
| O=C(NCc1cccnc1)c1ccc([N+](=O)[O-])cc1 | inactive |
| CCc1cc(=O)oc2cc(OC(C)=O)cc(OC(C)=O)c12 | inconclusive: 11.6 µM [inhibitor, partial curve, poor fit] |
| COc1cccc(-c2ocnc2C(=O)Nc2ccc(N3CCOCC3)cc2N2CCOCC2)c1 | active: 18.3 µM |
| O=C(Nc1ccc2c(c1)CCC2)c1cnccn1 | inconclusive: 10.3 µM [activator, partial curve] |
| Cc1ccc(C)c(OCCC(=O)N(C)CC(=O)Nc2c(C)cccc2C)c1 | inactive |
| CC(C)(C)c1ccc(-c2noc(CCC(N)=O)n2)cc1 | inconclusive: 0.259 µM [inhibitor, full curve] |
| COc1cc(/C=C/C(=O)Nc2nnc(CC(C)C)s2)cc(OC)c1OC | inconclusive: 20.6 µM [activator, single point] |
| CCCCNC(=S)NCc1ccc2[nH]c3c(c2c1)CCCC3 | inconclusive: 20.6 µM [inhibitor, single point] |
| Cn1c(=O)c2c(nc(SCCCC#N)n2Cc2c(F)cccc2Cl)n(C)c1=O | active: 16.4 µM |
| CN(Cc1cccs1)S(=O)(=O)c1ccc(Cl)cc1F | inactive |
| COc1ccccc1-c1sc2ccccc2c1-c1ccc(O)cc1 | inactive |
| COc1cc(-c2nnco2)cc(OC)c1OC | inactive |
| COc1ccccc1-c1nnc2sc(COc3ccc(F)cc3)nn12 | inconclusive: 9.2 µM [inhibitor, partial curve, poor fit] |
| CCOC(=O)C1CCN(C(=O)C2c3ccccc3C(=O)N(C)C2c2ccc(OC)cc2)CC1 (stereo not drawn) | inactive |
| CC1CCN(CC(O)COC2CCC(C(C)(C)C)CC2)CC1 (stereo not drawn) | inactive |

Shown with each value named: 2 of the compounds above
O=[N+]([O-])c1cccc(C=Nc2cccc3ccccc23)c1O
  Potency: inactive
COc1ccccc1-c1sc2ccccc2c1-c1ccc(O)cc1
  Potency: inactive
